Data reported in article PMC6017545, “Design, Synthesis, and Biological Evaluation of Novel 1,3,4-Thiadiazole Derivatives as Potential Antitumor Agents against Chronic Myelogenous Leukemia: Striking Effect of Nitrothiazole Moiety” (Molecules : A Journal of Synthetic Chemistry and Natural …, 2017).

How the values were obtained:
Format in all cases: cell-based
[1] = test system: K562 chronic myelogenous leukemia cell line; assay: MTT cytotoxicity assay, K562 cells; details: Homo sapiens, 48 h of incubation, mean ± SD, three independent experiments
Description: (§1) HeLa human cervical carcinoma cells were incubated in Dulbecco’s modified Eagle’s medium (DMEM) (Wako Pure Chemical Industries, Osaka, Japan) supplemented with 10% fetal bovine serum (FBS) (Equitech-Bio, Kerrville, TX, USA). […] All media were supplemented with 89 μg/mL streptomycin (Meiji Seika Pharma, Tokyo, Japan), and cells were incubated at 37 °C in a humidified atmosphere of 95% air and 5% CO2. Growing cells were plated at 2 × 10^4 cells/mL into 24-well microtiter tissue culture plates (Iwaki brand Asahi Glass Co., Chiba, Japan) and incubated for 48 h before the addition of the drugs (the optimal cell number for cytotoxicity assays was determined in preliminary experiments). […] The concentration of DMSO in the final culture medium was 1%.
(§2) The level of cellular reduction of 3-(4,5-dimethylthiazol-2-yl)-2,5-diphenyltetrazolium bromide (MTT) (Dojindo Molecular Technologies, Kumamoto, Japan) was quantified as previously described in the literature with small modifications. The tested compounds were incubated with cells in various concentrations for 48 h. The cells were then stained with MTT solution and incubated further for 4 h at 37 °C. […] The absorbance of the converted dye in the living cells was measured at a wavelength of 550 nm using a microplate spectrophotometer Infinitive M1000 (Tecan, Groding, Austria). Cell viability was calculated as a percentage of the viable control cells.

[2] = test system: MT-2 cell line; assay: MTT cytotoxicity assay, MT-2 cells; details: Homo sapiens, MT2, 48 h of incubation, mean ± SD, three independent experiments
Description: as §1, §2

[3] = test system: Jurkat cell line; assay: MTT cytotoxicity assay, Jurkat cells; details: Homo sapiens, 48 h of incubation, mean ± SD, three independent experiments
Description: as §1, §2

[4] = test system: HeLa human cervical carcinoma cell line; assay: MTT cytotoxicity assay, HeLa cells; details: 48 h of incubation, mean ± SD, three independent experiments
Description: as §1, §2

Which results are given for `Cc1ccc(NC(=O)c2ccc(CN3CCN(C)CC3)cc2)cc1Nc1nccc(-c2cccnc2)n1` [Imatinib, imatinib, reference compound]?
IC50 [1]: 5 ± 2 µM; IC50 [2]: 9.7 ± 3 µM; IC50 [3]: 6.7 ± 2 µM; IC50 [4]: 15.2 ± 6 µM
